The record followed here is paper PMC5534433.

Chains of the proteins cited; added tags and fusions are not shown. Lines headed by an entry give the natural chain unless they say otherwise; changes in a name come on top.
UniProt P53137: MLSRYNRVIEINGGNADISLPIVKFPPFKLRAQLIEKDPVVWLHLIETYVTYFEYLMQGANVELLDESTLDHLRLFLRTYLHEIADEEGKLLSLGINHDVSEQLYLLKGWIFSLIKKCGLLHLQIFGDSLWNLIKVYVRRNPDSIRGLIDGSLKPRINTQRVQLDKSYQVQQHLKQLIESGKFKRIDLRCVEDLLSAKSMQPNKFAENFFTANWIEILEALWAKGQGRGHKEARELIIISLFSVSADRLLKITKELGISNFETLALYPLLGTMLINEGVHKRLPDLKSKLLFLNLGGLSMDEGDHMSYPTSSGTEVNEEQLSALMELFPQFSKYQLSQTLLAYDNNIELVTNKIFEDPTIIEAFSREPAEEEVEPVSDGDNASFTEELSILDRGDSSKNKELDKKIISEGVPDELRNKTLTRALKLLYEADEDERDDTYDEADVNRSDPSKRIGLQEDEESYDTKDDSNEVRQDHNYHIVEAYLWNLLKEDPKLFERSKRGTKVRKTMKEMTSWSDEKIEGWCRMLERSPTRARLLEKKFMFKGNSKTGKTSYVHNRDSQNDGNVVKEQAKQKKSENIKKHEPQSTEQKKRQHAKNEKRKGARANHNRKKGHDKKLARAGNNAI

These are yes or no findings as the source states them, for the method shown. Binding seen in cells or lysates may run through a third protein. Binding calls can cover weak binding; strength is not graded here. Where a sequence is shown, tags or fusion partners need not be part of it.

This test concerns the target T1, C-terminal FLAG-TEV-ProtA-tagged Rqt1 (Hel2) (S. cerevisiae) (UniProt Q05580).
T1 sequence: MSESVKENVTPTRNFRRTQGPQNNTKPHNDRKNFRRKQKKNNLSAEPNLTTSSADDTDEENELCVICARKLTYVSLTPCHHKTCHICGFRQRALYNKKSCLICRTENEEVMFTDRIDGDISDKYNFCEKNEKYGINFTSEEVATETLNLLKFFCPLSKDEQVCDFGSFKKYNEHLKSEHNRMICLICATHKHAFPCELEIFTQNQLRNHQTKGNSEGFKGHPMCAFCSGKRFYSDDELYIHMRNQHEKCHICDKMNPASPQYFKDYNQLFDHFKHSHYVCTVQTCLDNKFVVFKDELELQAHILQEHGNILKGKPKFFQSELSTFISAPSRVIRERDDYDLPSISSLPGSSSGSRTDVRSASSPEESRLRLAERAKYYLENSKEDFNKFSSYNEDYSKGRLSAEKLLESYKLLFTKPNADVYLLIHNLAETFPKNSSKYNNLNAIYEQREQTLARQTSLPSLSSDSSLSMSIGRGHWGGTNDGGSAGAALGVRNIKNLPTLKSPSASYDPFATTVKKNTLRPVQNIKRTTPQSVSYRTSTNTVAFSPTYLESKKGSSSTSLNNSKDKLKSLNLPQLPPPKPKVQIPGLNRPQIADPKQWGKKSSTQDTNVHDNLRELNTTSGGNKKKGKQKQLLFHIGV
The test can be described thus: co-IP; Rqt1-ribosome complex purified from Rqt3-Ub-m mutant cells (Fig. 3d); how the partners were detected is not told.

In the case of “Rqt3-Ub-m (Rqt3 with mutations in the ubiquitin-binding CUE domain, in yeast cells) (from UniProt P53137)”, the binding result is given as “binds”.
